Measured values reported in patent US20180140578A1, “METHODS AND COMPOSITIONS FOR THE DIAGNOSIS AND SELECTIVE TREATMENT OF CANCER” (Board of Regents of the University of Texas System, priority 2016, published 2018).
At least one compound was matched to its structure with a doubt left.

Amino acid sequences for entries named in this document (tags omitted). Residues count along the entry.
UniProt Q14498, 151-530 limits assumed, stated change not applied: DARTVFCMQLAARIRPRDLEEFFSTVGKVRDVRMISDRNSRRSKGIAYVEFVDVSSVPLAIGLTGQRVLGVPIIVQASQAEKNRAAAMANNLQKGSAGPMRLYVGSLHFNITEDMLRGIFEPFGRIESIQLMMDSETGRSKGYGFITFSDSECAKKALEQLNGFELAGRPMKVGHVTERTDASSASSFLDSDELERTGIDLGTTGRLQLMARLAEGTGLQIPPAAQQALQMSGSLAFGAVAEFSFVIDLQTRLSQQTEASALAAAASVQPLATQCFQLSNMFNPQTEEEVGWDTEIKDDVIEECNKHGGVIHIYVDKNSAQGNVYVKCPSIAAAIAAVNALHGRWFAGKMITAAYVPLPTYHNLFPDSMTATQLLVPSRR
UniProt Q66K64, whole entry, stated change not applied: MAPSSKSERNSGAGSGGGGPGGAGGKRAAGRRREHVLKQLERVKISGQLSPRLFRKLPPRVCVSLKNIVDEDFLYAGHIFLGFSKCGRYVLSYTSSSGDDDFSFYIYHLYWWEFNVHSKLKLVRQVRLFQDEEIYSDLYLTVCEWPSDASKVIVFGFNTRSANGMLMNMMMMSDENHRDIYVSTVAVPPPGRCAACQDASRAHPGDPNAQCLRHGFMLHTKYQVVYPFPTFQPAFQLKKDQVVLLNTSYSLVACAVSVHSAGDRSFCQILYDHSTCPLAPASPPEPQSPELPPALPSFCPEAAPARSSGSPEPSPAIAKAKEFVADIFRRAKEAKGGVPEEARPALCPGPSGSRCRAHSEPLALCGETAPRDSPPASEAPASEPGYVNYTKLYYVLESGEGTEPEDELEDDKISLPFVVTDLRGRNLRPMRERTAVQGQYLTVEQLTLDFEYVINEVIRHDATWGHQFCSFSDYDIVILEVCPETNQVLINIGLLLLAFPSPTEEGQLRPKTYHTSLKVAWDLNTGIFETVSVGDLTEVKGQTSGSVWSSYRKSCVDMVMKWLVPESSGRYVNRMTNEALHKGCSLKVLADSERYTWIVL

Tests used:
[1] = target: T1, DCAF15-3xFLAG and RBM39Δ150 (Homo sapiens, UniProt Q14498+Q66K64); test: RBM39Δ150 pulldown assay; type: binding; conditions: wild type RBM39Δ150
T1 construct: Full-length cDNAs encoding CUL4A, CUL4B, DCAF15, and DDB1 were cloned into pLVX IRES Puro; made in house; host or cells: RBM39Δ150: Sf9 (baculovirus); DCAF15-3xFLAG: anti-FLAG beads from HCT-116 or 293T cells stably expressing it
Description: RBM39 lacking the first 150 amino acids after the start codon (RBM39Δ150) was cloned into the pFastBac1 (Life Technologies) vector. Site-directed Mutagenesis of RBM39 was performed using Q5 site-directed mutagenesis kit (NEB). DCAF15-GST (C-terminal GST tag) and DDB1 were also cloned into pFastBac1. The production of baculovirus was carried out following vendor's instructions. Protein was expressed in SF9 cells by infection with each protein specific baculovirus, and cells were harvested 48 hr later and frozen in liquid nitrogen. For purification of RBM39Δ150, frozen cells were pulverized by cryomill and resuspended in lysis buffer (40 mM Tris, pH 7.5, 225 mM NaCl, 1× […] Protease inhibitor). The lysate was passed through a 22 gauge needle 2 times followed by ultracentrifugation at 25000 rpm for 30 min. Clarified lysate was incubated with Ni-NTA agarose (Qiagen) for 30 min with rotation at 4° C. Resin and bound protein were washed with wash buffer 1 (40 mM Tris, pH 7.5, 225 mM NaCl) followed by wash buffer 2 (40 mM Tris, pH 7.5, 20 mM imidazole, 225 mM NaCl). Proteins were eluted with elution buffer (40 mM Tris, pH 7.5, 300 mM imidazole, 225 mM NaCl) and concentrated to 0.5 ml. Concentrated proteins were then fractionated on Superdex 200 Increase 10/300 GL (GE Healthcare). […]

[2] = system: HCT-116 RBM39 G268V knock-in cells; test: Cell viability assay, RBM39 G268V knock-in; type: cell-based, human; conditions: at concentrations as high as 50 μM
Description: 12-point dose responses were performed on 96-well assay plates with cell plating (1500-4000 cell per well) on day 1, compound addition on day 2, and survival measurement on day 5. Compounds were diluted in DMSO before adding to the cells. Final DMSO concentration was 0.5%. Cell survival assay was performed using CellTiter-Glo Luminescent Cell Viability Assay kit (Promega) that measures cellular ATP content. Luminescence was recorded by EnVison multimode plate reader (Perkin Elmer). IC50 was determined with GraphPad Prism using baseline correction (by normalizing to DMSO control), the asymmetric (five parameter) equation and least squares fit.
sgRNA targeting RBM39 (5′-[…]-3′) was cloned into the pSpCas9(BB)-2A-Puro (PX459) vector (Addgene 62988). For RBM39 G268V knock-in, 1 million HCT-116 or H1155 cells were nucleofected (using 4D-Nucleofector, Lonza) with PX459-RBM39 sgRNA and the single-stranded oligo 5′-[…] […] […] […]-3′ (SEQ ID NO: 13).

Nc1ccc(S(=O)(=O)Nc2cnc3c(Cl)cccc3n2)cc1 [CQS, chloroquinoxaline sulfonamide]
recruitment of RBM39Δ150 to DCAF15 [1]: recruit RBM39Δ150 to DCAF15 in a dose-dependent manner
sensitivity of cell line carrying RBM39 G268V [2]: insensitive
